The subject of this assay is RAW 264.7. Kind of assay: HMGB1-induced TNF-alpha production relative to HMGB1-stimulated control; higher = more TNF-alpha secretion (less inhibition). The note with it: stimulus: HMGB1 5 ug/ml, 18 h.
Where [1] appears, read: compound concentration: 1 ug/ml.

Where a name gives a salt, the structure may show the parent alone. ± gives the standard deviation of the averaged measurements. The list shows a part of the results. Repeats are few or missing, and single values can be far off.

Consider `O=C1CN2Cc3c(ccc(Cl)c3Cl)N=C2N1` [Anagrelide], for which the “HMGB1-induced TNF-alpha production” value (compound concentration: 3 uM) amounted to 94.3%.
Consider `CC(C)=CCCC(C)CCO` (stereo not given) [Citronellol], for which the “HMGB1-induced TNF-alpha production” value under setting [1] stood at 73.5%.
`CC(C)NCC(O)COc1ccc(COCCOC(C)C)cc1` (stereo not given) [Bisoprolol fumarate]: for the setting “compound concentration: 3 uM”, the “HMGB1-induced TNF-alpha production” value is 73.8%.
Turning to `CC(C)NCC(O)COc1ccc(COCCOC(C)C)cc1` (stereo not given), the “HMGB1-induced TNF-alpha production” value (compound concentration: 3 uM) was found to be 103.8 ± 0.22%.
Regarding `CC(C)NCC(O)COc1ccc(COCCOC(C)C)cc1` (stereo not given) [Bisoprolol hemifumarate salt], for the setting “compound concentration: 3 uM”, the “HMGB1-induced TNF-alpha production” value worked out at 98.2%.
In the case of `CC(N)(C(=O)O)c1ccc(C(=O)O)cc1` (racemic) [(±)-alpha-Methyl-4-carboxyphenylglycine], under “compound concentration: 3 uM”, the “HMGB1-induced TNF-alpha production” value stood at 117%.
On the same count and under the same terms, to `Nc1nc(=S)c2ncn([C@@H]3O[C@H](CO)[C@@H](O)[C@H]3O)c2[nH]1` [Thioguanosine] belongs 61.4%.
For `O=c1cc(-c2ccc(O)cc2)oc2cc(O)cc(O)c12` [Apigenin], the “HMGB1-induced TNF-alpha production” value runs as follows: under setting [1], 68.8%; (compound concentration: 3 uM) 89.6%.
For the compound `CO[C@H]1/C=C/O[C@@]2(C)Oc3c(C)c(O)c4c(c3C2=O)C2=NC3(CCN(CC(C)C)CC3)NC2=C(NC(=O)/C(C)=C\C=C\[C@H](C)[C@H](O)[C@@H](C)[C@@H](O)[C@@H](C)[C@H](OC(C)=O)[C@@H]1C)C4=O` [Rifabutin], the “HMGB1-induced TNF-alpha production” value (compound concentration: 3 uM) amounted to 104%.
Turning to `CO[C@H]1/C=C/O[C@@]2(C)Oc3c(C)c(O)c4c(c3C2=O)C2=NC3(CCN(CC(C)C)CC3)NC2=C(NC(=O)/C(C)=C\C=C\[C@H](C)[C@H](O)[C@@H](C)[C@@H](O)[C@@H](C)[C@H](OC(C)=O)[C@@H]1C)C4=O`, the “HMGB1-induced TNF-alpha production” value (compound concentration: 3 uM) was found to be 106%.
Turning to `NC[C@H]1O[C@@H](n2cnc3c(N)ncnc32)[C@H](O)[C@@H]1O` [5'-Amino-5'-deoxyadenosine p-toluenesulfonate salt], the “HMGB1-induced TNF-alpha production” value (compound concentration: 3 uM) came out at 90.5%.
Turning to `C[C@@H](N)[C@H]1CC[C@H](C(=O)Nc2ccncc2)CC1`, under “compound concentration: 3 uM”, the “HMGB1-induced TNF-alpha production” value was 86.6%.
As for `O=C(Cn1ccnc1[N+](=O)[O-])NCCO`, the “HMGB1-induced TNF-alpha production” value (compound concentration: 3 uM) came out at 82.76 ± 0.31%.
As to `O=C(Cn1ccnc1[N+](=O)[O-])NCCO` [Etanidazole], for the setting “compound concentration: 3 uM”, the “HMGB1-induced TNF-alpha production” value came out at 90.1%.
Turning to `CC(=O)OCC(COC(C)=O)OC(C)=O`, the “HMGB1-induced TNF-alpha production” value (compound concentration: 3 uM) turned out to be 93.9%.
As to `COc1ccc(CCNc2nc(Cl)nc(N3CC4CC(C3)c3cccc(=O)n3C4)n2)cc1OC` (stereo not given), the “HMGB1-induced TNF-alpha production” value under setting [1] turned out to be 86%.
On to `CN(C)CCN(Cc1cccs1)c1ccccn1` [Methapyrilene hydrochloride], for which the “HMGB1-induced TNF-alpha production” value (compound concentration: 3 uM) stood at 95.4 ± 32%.
Turning to `CN(C)CCN(Cc1cccs1)c1ccccn1`, under “compound concentration: 3 uM”, the “HMGB1-induced TNF-alpha production” value came out at 106%.
`COc1c(O[C@@H]2O[C@H](CO)[C@@H](O)[C@H](O)[C@H]2O)cc2c(c1OC)-c1ccc(SC)c(=O)cc1[C@@H](NC(C)=O)CC2` [Thiocolchicoside]: the “HMGB1-induced TNF-alpha production” value (compound concentration: 3 uM) is 67.9%.
In the case of `Cn1c(=O)[nH]c2c([nH]c(=O)n2C)c1=O` [1,9-dimethyluric acid], the “HMGB1-induced TNF-alpha production” value under setting [1] is 59.1%.
For the compound `Clc1ccc(C(Cn2ccnc2)OCc2c(Cl)cccc2Cl)c(Cl)c1` (stereo not given) [Isoconazole], the “HMGB1-induced TNF-alpha production” value (compound concentration: 3 uM) stood at 49.6%.
As for `NCCC[C@H](N)C(=O)O`, the “HMGB1-induced TNF-alpha production” value (compound concentration: 3 uM) is 91.3%.
The same measure, in the same setting: next, `CCOC(=O)C1=C(C)NC(C)=C(C(=O)OCC)C1c1c(F)c(F)c(F)c(F)c1F` [Nemadipine-A]: 101%; `NC(=O)N1c2ccccc2C=Cc2ccccc21`: 102%.
With `NC(=O)N1c2ccccc2C=Cc2ccccc21` [Carbamazepine], the “HMGB1-induced TNF-alpha production” value (compound concentration: 3 uM) amounted to 88.1 ± 6.7%.
On the same count and under the same terms, to `CCn1cc(C(=O)O)c(=O)c2cnc(N3CCNCC3)nc21` belongs 88.2%; to `CCn1cc(C(=O)O)c(=O)c2cnc(N3CCNCC3)nc21` [Pipemidic acid], 111%.
Consider `NCCS(=O)(=O)O` [Taurine], for which the “HMGB1-induced TNF-alpha production” value (compound concentration: 3 uM) stood at 112%.
The same measure, in the same setting: to `NCCS(=O)(=O)O` belongs 88.6%; to `COc1cc2nc(N3CCN(C(=O)c4ccco4)CC3)nc(N)c2cc1OC` [Prazosin], 99.9 ± 7.8%; to `COc1cc2nc(N3CCN(C(=O)c4ccco4)CC3)nc(N)c2cc1OC`, 77.8%.
Take `COc1cc2nc(N3CCN(C(=O)c4ccco4)CC3)nc(N)c2cc1OC` [Prazosin hydrochloride]: the “HMGB1-induced TNF-alpha production” value runs as follows: under setting [1], 81.4%; (compound concentration: 3 uM) 98.5 ± 9%.
In the case of `N#CC(C#N)=C(N)/C(C#N)=C/c1ccc(O)cc1` [Tyrphostin AG 112], the “HMGB1-induced TNF-alpha production” value (compound concentration: 3 uM) was found to be 94.4%.
As for `COc1cccc(-c2cc(=O)c3ccc(O)cc3o2)c1` [7-Hydroxy-3'-methoxyflavone], the “HMGB1-induced TNF-alpha production” value under setting [1] was determined as 71.8%.
For `COc1ccc2c(C)cc(=O)oc2c1OC` [7,8-Dimethoxy-4-methylcoumarin], the “HMGB1-induced TNF-alpha production” value under setting [1] was determined as 83.1%.
`COc1nc(C)nc(Cl)c1NC1=NCCN1` [Moxonidine]: the “HMGB1-induced TNF-alpha production” value (compound concentration: 3 uM) was 101%.
On the same count and under the same terms, to `COc1nc(C)nc(Cl)c1NC1=NCCN1` [Moxonidine hydrochloride] belongs 107%; to `COc1nc(C)nc(Cl)c1NC1=NCCN1`, 104%.

The record behind these values is the supplement of paper PMC3682954.
